Laboratory results taken from patent publication US20150164907A1, “COMPOSITIONS AND METHODS FOR TREATING DISEASE” (ANGION BIOMEDICA CORP., priority 2013, published 2015).
Some entries share one result that the patent states for a list of compounds.

Test system: breast cancer cell line UACC812
Assay: Proliferation of breast cancer cell line UACC812, fixed ratio combination design
Format: cell-based
Conditions: combined with ATRA, fixed ratio PI3Km/TOR inhibitor to ATRA 3:1; UACC812 cells

SMILES	combination index (CI)
CS(=O)(=O)N1CCN(Cc2cc3nc(-c4cccc5[nH]ncc45)nc(N4CCOCC4)c3s2)CC1 [GDC-0941, 2-(1H-indazol-4-yl)-6-(4-methanesulfonyl-piperazin-1-ylmethyl)-4-morpholin-4-yl-thieno[3,2-d]pyrimidine]	below 1
Cn1c(=O)n(-c2ccc(C(C)(C)C#N)cc2)c2c3cc(-c4cnc5ccccc5c4)ccc3ncc21 [NVP-BEZ235]	below 1
